According to PubChem BioAssay AID1487 (National Center for Advancing Translational Sciences (NCATS), 2009):
The list shows a part of the results. Further columns of the screen follow, without active or inactive calls. Most of these compounds were active or inconclusive in the main read-out, so they are no random draw. Potencies come from curve fits of mixed quality, noted in brackets.

Assay: qHTS Assay for Modulators of Lamin A Splicing
Conditions: HeLa LMNA splicing GFP/RFP minigene ratio, 48 h
Outline: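 S3 HeLa cells stably expressing lamin A-EGFP splicing minigene plus DsRed2, 600 cells/well, 48 h compound exposure at 37C. Laser-scanning cytometry; analysed as GFP (500-530 nm)/RFP (575-640 nm) total intensity ratio; 0.5% DMSO vehicle.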

[1] = measured here: RFP viability control channel
[2] = measured here: GFP splicing reporter channel

**Q.** For `Cc1cc(C(=O)Cn2cncn2)c(C)n1CCc1ccc(F)cc1`, which AC50 [1] is on record?
**A.** 35.5 µM [rising, single point]

**Q.** With `O=C(NC1=NCCS1)c1cc(-c2ccc(-c3ccccc3)cc2)nc2ccccc12` as the molecule, how does the AC50 [1] read?
**A.** 15.8 µM [rising, partial curve]

**Q.** Which AC50 [2] does the source give for `C[C@@H]1[C@H](C)CC[C@@]2(C(=O)O[C@H]3O[C@@H](CO[C@H]4O[C@@H](CO)[C@@H](O[C@H]5O[C@@H](C)[C@@H](O)[C@@H](O)[C@@H]5O)[C@@H](O)[C@@H]4O)[C@@H](O)[C@@H](O)[C@@H]3O)CC[C@]3(C)C(=CC[C@H]4[C@@]5(C)C[C@@H](O)[C@@H](O)[C@](C)(CO)[C@@H]5CC[C@@]43C)[C@@H]12` here?
**A.** 0.398 µM [falling, partial curve]

**Q.** What about the AC50 [1] of the same molecule?
**A.** 0.355 µM [falling, single point]

**Q.** For `Cc1cccc(C(=O)NC(=S)NNC(=O)c2ccc(Cl)cc2)c1`, which AC50 [2] is on record?
**A.** 2.82 µM [rising, full curve]

**Q.** What about the AC50 [1] of the same molecule?
**A.** 6.31 µM [rising, full curve]

**Q.** For `CCCc1ccc(Oc2c(-c3ccc(O)c(C)c3O)n[nH]c2C)cc1`, which AC50 [1] is on record?
**A.** 31.6 µM [rising, single point]

**Q.** Which AC50 [2] does the source give for `OCc1ccnc2c(O)cccc12` here?
**A.** 14.1 µM [rising, partial curve]

**Q.** What about the AC50 [1] of the same molecule?
**A.** 15.8 µM [rising, single point]

**Q.** Which AC50 [1] does the source give for `CCOC(=O)c1sc2nccc(OC)c2c1N=CN(C)C` here?
**A.** 17.8 µM [falling, partial curve, poor fit]

**Q.** Which AC50 [1] does the source give for `COc1cc(NCCC(=O)c2cccs2)c(OC)cc1Cl` here?
**A.** 0.00891 µM [rising, full curve, poor fit]

**Q.** For `CN(C)S(=O)(=O)c1ccc(N2CCCC2)c(C(=O)Nc2nc3ccccc3s2)c1`, which AC50 [1] is on record?
**A.** 20 µM [rising, single point]

**Q.** With `O=C(/C=C\c1ccco1)Nc1nc(-c2ccccc2)cs1` as the molecule, how does the AC50 [1] read?
**A.** 20 µM [rising, single point]

**Q.** Which AC50 [2] does the source give for `COC(=O)c1c(NC(=O)c2ccc(Br)o2)sc(C)c1C` here?
**A.** 6.31 µM [rising, single point]

**Q.** With `O=C(C(Sc1ccccc1)c1ccccc1)N1CCN(c2ccccc2)CC1` (stereo not given) as the molecule, how does the AC50 [1] read?
**A.** 12.6 µM [rising, partial curve]

**Q.** What does the source list for `C=CCn1cnc2scc(-c3ccc(C)c(C)c3)c2c1=O`?
**A.** AC50 [2]: 7.08 µM [falling, partial curve]; AC50 [1]: 7.08 µM [falling, full curve, poor fit]

**Q.** With `Cc1ccc(SCC(=O)Nc2ccccc2C(=O)N2CCOCC2)cc1` as the molecule, how does the AC50 [2] read?
**A.** 0.282 µM [falling, full curve, poor fit]

**Q.** Which AC50 [1] does the source give for `O=[N+]([O-])c1ccc(O)c2cccnc12` here?
**A.** 0.631 µM [falling, partial curve]

**Q.** For `Cc1oc2c(c1C(=O)c1ccc(Cl)cc1)C(=O)C(=O)c1ccccc1-2`, which AC50 [2] is on record?
**A.** 5.62 µM [falling, full curve]

**Q.** What about the AC50 [1] of the same molecule?
**A.** 4.47 µM [falling, full curve]

**Q.** With `Clc1cccc(-c2cc3nc4c(c(NCc5ccco5)n3n2)CCCC4)c1` as the molecule, how does the AC50 [2] read?
**A.** 20 µM [rising, partial curve, poor fit]

**Q.** And the AC50 [1]?
**A.** 31.6 µM [rising, single point]

**Q.** Which AC50 [2] does the source give for `Cc1c(Cl)cccc1NC(=O)N1CCN(Cc2cc(=O)n3nc(-c4ccccc4F)sc3n2)CC1` here?
**A.** 0.794 µM [rising, single point]

**Q.** For `Cc1nn(C)c2c1c(-c1ccccc1)cc(=O)n2Cc1ccccc1F`, which AC50 [1] is on record?
**A.** 31.6 µM [rising, single point]

**Q.** Which results are given for `COc1ccc(/C=C/C(O)=C2/C(=O)N(C)C3(C)CC2c2ccccc2O3)cc1` (stereo not given)?
**A.** AC50 [2]: 35.5 µM [falling, single point]; AC50 [1]: 15.8 µM [rising, single point]

**Q.** For `COc1ccc(NC(=O)c2cc(-c3ccccc3)nc3c2c(C)nn3-c2ccccc2)c(OC)c1`, which AC50 [2] is on record?
**A.** 6.31 µM [rising, partial curve, poor fit]

**Q.** For `CCOc1cc(-c2nc(-c3ccccc3)c(-c3cc([N+](=O)[O-])ccc3C)[nH]2)ccc1O`, which AC50 [2] is on record?
**A.** 20 µM [rising, partial curve, poor fit]

**Q.** And the AC50 [1]?
**A.** 35.5 µM [rising, single point]

**Q.** For `COc1ccccc1C(=O)NCCn1cc(SCC(=O)NCc2ccco2)c2ccccc21`, which AC50 [1] is on record?
**A.** 35.5 µM [rising, single point]

**Q.** For `O=C(Cn1cnc2c(nnn2Cc2ccc(F)cc2)c1=O)NCc1ccc(F)cc1`, which AC50 [1] is on record?
**A.** 7.94 µM [rising, partial curve]

**Q.** Which AC50 [1] does the source give for `Cc1cccc(CN2CCc3c(OCC(=O)N4CCCc5ccccc54)cccc3C2=O)c1` here?
**A.** 35.5 µM [rising, single point]

**Q.** Which AC50 [1] does the source give for `CCNC(=S)N/N=C/c1cn(Cc2ccc(F)cc2)c2ccccc12` here?
**A.** 35.5 µM [rising, single point]

**Q.** Which AC50 [2] does the source give for `Cc1nnc(SCC(=O)Nc2ccc3c(c2)OCO3)n(N)c1=O` here?
**A.** 0.00316 µM [rising, full curve, poor fit]

**Q.** Which AC50 [2] does the source give for `CCn1c(C(=O)NCCCc2ccccc2)cc2sccc21` here?
**A.** 14.1 µM [rising, single point]

**Q.** And the AC50 [1]?
**A.** 15.8 µM [rising, single point]

**Q.** With `Cc1ccccc1CNC(=O)C(=O)NCC(c1ccco1)S(=O)(=O)c1ccc(F)cc1` (stereo not given) as the molecule, how does the AC50 [2] read?
**A.** 25.1 µM [falling, single point]

**Q.** With `Cc1nc(C#N)c(N/N=C/c2cccc(Cl)c2)o1` as the molecule, how does the AC50 [1] read?
**A.** 35.5 µM [rising, single point]

**Q.** For `CC(C)OC(=O)CSc1n[nH]c(-c2cccnc2)n1`, which AC50 [1] is on record?
**A.** 3.55 µM [rising, single point]

**Q.** For `S=c1[nH]nc(-c2ccco2)n1/N=C/c1ccc(Cl)cc1`, which AC50 [1] is on record?
**A.** 3.16 µM [rising, partial curve, poor fit]

**Q.** With `COC(=O)c1ccc(Cn2c(=O)cc(C)c3c(C)nn(C)c32)cc1` as the molecule, how does the AC50 [1] read?
**A.** 0.158 µM [falling, partial curve]

**Q.** Which AC50 [1] does the source give for `CC(C)c1ccc(C(=O)N2CCCN(C(=O)c3ccc(C(C)C)cc3)CC2)cc1` here?
**A.** 25.1 µM [rising, single point]

**Q.** With `O=C(N/N=C/c1coc2ccccc2c1=O)c1ccccc1` as the molecule, how does the AC50 [1] read?
**A.** 0.0178 µM [rising, full curve, poor fit]

**Q.** For `N#C/C(=C/c1ccc(N2CCCCC2)cc1)c1cccc(F)c1`, which AC50 [1] is on record?
**A.** 11.2 µM [rising, partial curve]
